{"source": "PubChem BioAssay AID686938 (Drosophila RNAi Screening Center, 2013)", "screen": "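Looking for CRAC channel components and the factors controlling them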 (primary screen)", "system": "Drosophila S2R+ cells", "reagent": "long dsRNA against Drosophila genes, about 0.25 µg dsRNA per well, roughly 10,000 cells", "time to read-out": "5 days of knock-down before the calcium assay", "conditions": "thapsigargin (SERCA pump blocker) to empty calcium stores; entry signal taken 4 min after adding it", "detection": "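Per-well fluo-4 fluorescence in two replicates, unnormalised, measured in resting cells and 4 min after store depletion by the SERCA blocker thapsigargin; ratio of the two present in few wells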", "scale": "calcium entry signal: higher = stronger calcium signal after store depletion; resting calcium signal: higher = higher resting calcium signal", "units": "calcium entry signal in fluorescence units; resting calcium signal in fluorescence units", "call rule": "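Called when the plate z-score of the entry-to-rest ratio, mean of duplicates, falls below −3; wells with low overall dye signal (Fmax z below −2) or more than five off-targets excluded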", "meaning of the calls": "active = strongly reduced calcium entry; inactive = no strong reduction", "note": "In all, the deposit lists about 23,000 reagents; shown is an unselected part of those with a known target gene and a result. Over the whole deposit, 75 (0.33%) were called active. 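Raw plate signals without normalisation; calls rest on plate z-scores that were not deposited; ratio present for only 364 wells.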 No sequences are given here. Not stated in the record: the dose of the treatment."}
{"gene": "CG17999", "DRSC id": "DRSC04300", "calcium entry signal, replicate 1": 3.99e7, "resting calcium signal, replicate 1": 2.03e7, "Call": "inactive"}
{"gene": "IntS6 (Integrator 6)", "DRSC id": "DRSC18281", "calcium entry signal, replicate 1": 2.56e7, "calcium entry signal, replicate 2": 2.84e7, "resting calcium signal, replicate 1": 1.29e7, "resting calcium signal, replicate 2": 1.44e7, "Call": "inactive"}
{"gene": "CG6660", "DRSC id": "DRSC16087", "calcium entry signal, replicate 1": 6.12e7, "calcium entry signal, replicate 2": 3.91e7, "resting calcium signal, replicate 1": 2.59e7, "resting calcium signal, replicate 2": 1.57e7, "Call": "inactive"}
{"gene": "Surf4 (Surfeit 4)", "DRSC id": "DRSC16875", "calcium entry signal, replicate 1": 3.39e7, "calcium entry signal, replicate 2": 5.28e7, "resting calcium signal, replicate 1": 1.62e7, "resting calcium signal, replicate 2": 5.86e7, "Call": "inactive"}
{"gene": "rin (rasputin)", "DRSC id": "DRSC17045", "calcium entry signal, replicate 1": 3.85e7, "calcium entry signal, replicate 2": 6.98e7, "resting calcium signal, replicate 1": 2.15e7, "resting calcium signal, replicate 2": 6.69e7, "Call": "inactive"}
{"gene": "rin (rasputin)", "DRSC id": "DRSC22997", "calcium entry signal, replicate 1": 5.48e7, "calcium entry signal, replicate 2": 4.04e7, "resting calcium signal, replicate 1": 2.86e7, "resting calcium signal, replicate 2": 1.72e7, "Call": "inactive"}
{"gene": "Rnb (R and B)", "DRSC id": "DRSC16325", "calcium entry signal, replicate 1": 3.33e7, "calcium entry signal, replicate 2": 4.39e7, "resting calcium signal, replicate 1": 1.50e7, "resting calcium signal, replicate 2": 1.91e7, "Call": "inactive"}
{"gene": "Bre1", "DRSC id": "DRSC09742", "calcium entry signal, replicate 1": 2.94e7, "calcium entry signal, replicate 2": 2.20e7, "resting calcium signal, replicate 1": 2.05e7, "resting calcium signal, replicate 2": 9.49e6, "Call": "inactive"}
{"gene": "CG7384", "DRSC id": "DRSC03053", "calcium entry signal, replicate 1": 4.67e7, "resting calcium signal, replicate 1": 2.22e7, "Call": "inactive"}
{"gene": "Herc4 (HECT and RLD domain containing E3 ubiquitin ligase 4)", "DRSC id": "DRSC08631", "calcium entry signal, replicate 1": 2.86e7, "calcium entry signal, replicate 2": 3.84e7, "resting calcium signal, replicate 1": 1.34e7, "resting calcium signal, replicate 2": 1.65e7, "Call": "inactive"}
{"gene": "CG7694", "DRSC id": "DRSC16288", "calcium entry signal, replicate 1": 4.69e7, "calcium entry signal, replicate 2": 5.28e7, "resting calcium signal, replicate 1": 5.87e7, "resting calcium signal, replicate 2": 2.31e7, "Call": "inactive"}
{"gene": "na (narrow abdomen)", "DRSC id": "DRSC19639", "calcium entry signal, replicate 1": 2.98e7, "calcium entry signal, replicate 2": 3.76e7, "resting calcium signal, replicate 1": 1.55e7, "resting calcium signal, replicate 2": 1.62e7, "Call": "inactive"}
{"gene": "CG7668", "DRSC id": "DRSC10901", "calcium entry signal, replicate 1": 3.36e7, "calcium entry signal, replicate 2": 4.51e7, "resting calcium signal, replicate 1": 1.60e7, "resting calcium signal, replicate 2": 3.01e7, "Call": "inactive"}
{"gene": "CG7130", "DRSC id": "DRSC11797", "calcium entry signal, replicate 1": 2.95e7, "calcium entry signal, replicate 2": 6.08e7, "resting calcium signal, replicate 1": 1.41e7, "resting calcium signal, replicate 2": 2.62e7, "Call": "inactive"}

2 of these entries, reformatted.
gene	DRSC id	calcium entry signal, replicate 1	calcium entry signal, replicate 2	resting calcium signal, replicate 1	resting calcium signal, replicate 2	Call
CG6660	DRSC16087	6.12e7	3.91e7	2.59e7	1.57e7	inactive
Surf4 (Surfeit 4)	DRSC16875	3.39e7	5.28e7	1.62e7	5.86e7	inactive

The listing continues:
{"gene": "Sod2 (Superoxide dismutase 2 (Mn))", "DRSC id": "DRSC07554", "calcium entry signal, replicate 1": 4.16e7, "calcium entry signal, replicate 2": 4.28e7, "resting calcium signal, replicate 1": 1.87e7, "resting calcium signal, replicate 2": 2.15e7, "Call": "inactive"}
{"gene": "CG9265", "DRSC id": "DRSC03178", "calcium entry signal, replicate 1": 5.87e7, "calcium entry signal, replicate 2": 4.55e7, "resting calcium signal, replicate 1": 2.73e7, "resting calcium signal, replicate 2": 1.94e7, "Call": "inactive"}
{"gene": "CG9265", "DRSC id": "DRSC03179", "calcium entry signal, replicate 1": 5.66e7, "calcium entry signal, replicate 2": 4.67e7, "resting calcium signal, replicate 1": 2.70e7, "resting calcium signal, replicate 2": 2.12e7, "Call": "inactive"}
{"gene": "RpL37-2 (Ribosomal protein L37-2)", "DRSC id": "DRSC04584", "calcium entry signal, replicate 1": 3.72e7, "calcium entry signal, replicate 2": 3.93e7, "resting calcium signal, replicate 1": 1.96e7, "resting calcium signal, replicate 2": 1.87e7, "Call": "inactive"}
{"gene": "Vha16-4 (Vacuolar H[+] ATPase 16kD subunit 4)", "DRSC id": "DRSC07321", "calcium entry signal, replicate 1": 3.92e7, "calcium entry signal, replicate 2": 4.96e7, "resting calcium signal, replicate 1": 1.78e7, "resting calcium signal, replicate 2": 2.25e7, "Call": "inactive"}
{"gene": "orion", "DRSC id": "DRSC18213", "calcium entry signal, replicate 1": 2.91e7, "calcium entry signal, replicate 2": 4.21e7, "resting calcium signal, replicate 1": 1.49e7, "resting calcium signal, replicate 2": 1.74e7, "Call": "inactive"}
{"gene": "orion", "DRSC id": "DRSC18214", "calcium entry signal, replicate 1": 2.80e7, "calcium entry signal, replicate 2": 4.49e7, "resting calcium signal, replicate 1": 1.41e7, "resting calcium signal, replicate 2": 2.08e7, "Call": "inactive"}
